The source of these data is US20060257938A1, “Method of screening for drugs that block ligand binding to a lipid binding protein” (priority 2005, published 2006).

Residue numbers refer to the chain shown, from its start.

First the molecules themselves.
B1: 117S, 72A (protein, listed as Rattus norvegicus)
chain: AFDGTWKVDRNENYEKFMEKMGINVVKRKLGAHDNLKLTITQEGNKFTVKESSNFRNIDVVFELGVDFAYSAADGTELTGTWTMEGNKLVGKFKRVDNGKELIAVREISGNELIQTSTYEGVEAKRIFKKE
modifications: PEPTIDE (1)...(131) wild-type rat intestinal fatty acid binding protein
B2: 119C, 72A (protein, listed as Rattus norvegicus)
chain: B1 chain with S117Y, Y119C
modifications: PEPTIDE (1)...(131) wild-type rat intestinal fatty acid binding protein
B3: 102F, 72A (protein, listed as Rattus norvegicus)
chain: B1 chain with L102F, S117Y
modifications: PEPTIDE (1)...(131) wild-type rat intestinal fatty acid binding protein
B4: 119A, 72A (protein, listed as Rattus norvegicus)
chain: B1 chain with S117Y, Y119A
modifications: PEPTIDE (1)...(131) wild-type rat intestinal fatty acid binding protein
B5: 119S, 72A (protein, listed as Rattus norvegicus)
chain: B1 chain with S117Y, Y119S
modifications: PEPTIDE (1)...(131) wild-type rat intestinal fatty acid binding protein
B6: 117W, 72A (protein, listed as Rattus norvegicus)
chain: B1 chain with S117W
modifications: PEPTIDE (1)...(131) wild-type rat intestinal fatty acid binding protein
B7: 117E, 72A (protein, listed as Rattus norvegicus)
chain: B1 chain with S117E
modifications: PEPTIDE (1)...(131) wild-type rat intestinal fatty acid binding protein
B8: 119G, 72A (protein, listed as Rattus norvegicus)
chain: B1 chain with S117Y, Y119G
modifications: PEPTIDE (1)...(131) wild-type rat intestinal fatty acid binding protein
B9: 117Y, 72A (protein, listed as Rattus norvegicus)
chain: B1 chain with S117Y
modifications: PEPTIDE (1)...(131) wild-type rat intestinal fatty acid binding protein
B10: 117L, 72A (protein, listed as Rattus norvegicus)
chain: B1 chain with S117L
modifications: PEPTIDE (1)...(131) wild-type rat intestinal fatty acid binding protein
B11: 117N, 72A (protein, listed as Rattus norvegicus)
chain: B1 chain with S117N
modifications: PEPTIDE (1)...(131) wild-type rat intestinal fatty acid binding protein
B12: 119T, 72A (protein, listed as Rattus norvegicus)
chain: B1 chain with S117Y, Y119T
modifications: PEPTIDE (1)...(131) wild-type rat intestinal fatty acid binding protein
B13: 119V, 72A (protein, listed as Rattus norvegicus)
chain: B1 chain with S117Y, Y119V
modifications: PEPTIDE (1)...(131) wild-type rat intestinal fatty acid binding protein
B14: 119Q, 72A (protein, listed as Rattus norvegicus)
chain: B1 chain with S117Y, Y119Q
modifications: PEPTIDE (1)...(131) wild-type rat intestinal fatty acid binding protein
B15: 117H, 72A (protein, listed as Rattus norvegicus)
chain: B1 chain with S117H
modifications: PEPTIDE (1)...(131) wild-type rat intestinal fatty acid binding protein
B16: 117P, 72A (protein, listed as Rattus norvegicus)
chain: B1 chain with S117P
modifications: PEPTIDE (1)...(131) wild-type rat intestinal fatty acid binding protein
B17: 117F, 72A (protein, listed as Rattus norvegicus)
chain: B1 chain with S117F
modifications: PEPTIDE (1)...(131) wild-type rat intestinal fatty acid binding protein
B18: 117R, 72A (protein, listed as Rattus norvegicus)
chain: B1 chain with S117R
modifications: PEPTIDE (1)...(131) wild-type rat intestinal fatty acid binding protein
B19: 117T, 72A (protein, listed as Rattus norvegicus)
chain: B1 chain with S117T
modifications: PEPTIDE (1)...(131) wild-type rat intestinal fatty acid binding protein
B20: 117I, 72A (protein, listed as Rattus norvegicus)
chain: B1 chain with S117I
modifications: PEPTIDE (1)...(131) wild-type rat intestinal fatty acid binding protein
B21: 117Q, 72A (protein, listed as Rattus norvegicus)
chain: B1 chain with S117Q
modifications: PEPTIDE (1)...(131) wild-type rat intestinal fatty acid binding protein
B22: 102E, 72A (protein, listed as Rattus norvegicus)
chain: B1 chain with L102E, S117Y
modifications: PEPTIDE (1)...(131) wild-type rat intestinal fatty acid binding protein
B23: 102D, 72A (protein, listed as Rattus norvegicus)
chain: B1 chain with L102D, S117Y
modifications: PEPTIDE (1)...(131) wild-type rat intestinal fatty acid binding protein
B24: 119I, 72A (protein, listed as Rattus norvegicus)
chain: B1 chain with S117Y, Y119I
modifications: PEPTIDE (1)...(131) wild-type rat intestinal fatty acid binding protein
B25: 117G, 72A (protein, listed as Rattus norvegicus)
chain: B1 chain with S117G
modifications: PEPTIDE (1)...(131) wild-type rat intestinal fatty acid binding protein
B26: 117K, 72A (protein, listed as Rattus norvegicus)
chain: B1 chain with S117K
modifications: PEPTIDE (1)...(131) wild-type rat intestinal fatty acid binding protein
B27: 119H, 72A (protein, listed as Rattus norvegicus)
chain: B1 chain with S117Y, Y119H
modifications: PEPTIDE (1)...(131) wild-type rat intestinal fatty acid binding protein
B28: 119K, 72A (protein, listed as Rattus norvegicus)
chain: B1 chain with S117Y, Y119K
modifications: PEPTIDE (1)...(131) wild-type rat intestinal fatty acid binding protein
B29: 119F, 72A (protein, listed as Rattus norvegicus)
chain: B1 chain with S117Y, Y119F
modifications: PEPTIDE (1)...(131) wild-type rat intestinal fatty acid binding protein
B30: 117V, 72A (protein, listed as Rattus norvegicus)
chain: B1 chain with S117V
modifications: PEPTIDE (1)...(131) wild-type rat intestinal fatty acid binding protein
B31: 11C, 72A (protein, listed as Rattus norvegicus)
chain: B1 chain with N11C, S117Y
modifications: PEPTIDE (1)...(131) wild-type rat intestinal fatty acid binding protein

One series can be described thus: Baseline fluorescence ratio Ro of probe in absence of analyte. The settings on record: baseline fluorescence ratio of probe.
On to B1, for which the Ro was 0.357.

Turning to B2, the Ro amounted to 0.679.

For the molecule B3, the Ro is given as 0.218.

On to B4, for which the Ro was determined as 0.304.

Consider B5, for which the Ro turned out to be 0.313.

Turning to B6, the Ro came out at 0.294.

The same series, now with this note: baseline fluorescence ratio of probe, no fatty acid.
B7: the AvgOfRo came to 0.20 and the Ro is recorded as 0.196.

Take B1: the AvgOfRo was found to be 0.36 and the Ro is recorded as 0.357.

With B8, the AvgOfRo came to 0.25.

Regarding B9, the AvgOfRo came out at 0.18.

B10: the AvgOfRo was found to be 0.11.

On to B11, for which the AvgOfRo is on record as 0.18.

B2: the AvgOfRo came to 0.68.

Turning to B12, the AvgOfRo was 0.25.

As for B13, the AvgOfRo worked out at 0.33 and the Ro was determined as 0.344.

For the molecule B3, the AvgOfRo worked out at 0.25.

In the case of B14, the AvgOfRo is 0.52.

In the case of B15, the AvgOfRo is 0.31 and the Ro was determined as 0.311.

As for B16, the AvgOfRo is 0.41.

Take B17: the AvgOfRo is given as 0.19.

Consider B18, for which the AvgOfRo came to 0.41.

For the molecule B19, the AvgOfRo is reported as 0.20 and the Ro is 0.197.

As to B20, the AvgOfRo is 0.14 and the Ro is 0.133.

B21: the AvgOfRo was found to be 0.37 and the Ro is reported as 0.368.

As for B22, the AvgOfRo is listed as 0.41.

For B23, the AvgOfRo came out at 0.41.

For B24, the AvgOfRo amounted to 0.33 and the Ro is on record as 0.303.

Consider B25, for which the AvgOfRo came to 0.36.

For B26, the AvgOfRo is listed as 0.19.

Take B27: the AvgOfRo came to 0.33.

With B28, the AvgOfRo was 0.31.

With B4, the AvgOfRo came to 0.31 and the Ro is on record as 0.304.

As for B5, the AvgOfRo was determined as 0.31 and the Ro came to 0.313.

In the case of B29, the AvgOfRo was 0.20.

With B6, the AvgOfRo is recorded as 0.29.

Regarding B30, the AvgOfRo is given as 0.16 and the Ro stood at 0.153.

Regarding B31, the AvgOfRo was 0.45.
